Conditions: after 2 months accelerated stability; Barex pouch

Structure (SMILES): CCN(CC)CC(=O)Nc1c(C)cccc1C [Lidocaine, lidocaine base]
- absorption of drug onto the pouch: does not absorb onto the pouch
- stability of drug in the pouched units: remains perfectly stable

From US10307380B1, “Composition and method for transdermal lidocaine delivery” (priority 2014, dated 2019)
